The results in this text go back to patent US20240352073A1 (Janssen Biotech, Inc., priority 2021, published 2024).

A short description of this series: general procedure: Fmoc solid-phase peptide synthesis; Rink Amide MBHA (C-terminal amides); pre-loaded Wang or 2-chlorotrityl resin (C-terminal acids); HBTU/DIEA, Oxyma/DIC, or PyAOP/DIEA. The following applies: for cyclisation yield / isolated yield: TFA salt; for final HPLC purity: analytical RP-HPLC; for isolated yield: total yield, scale of the general procedure 0.1 mmol.

[1] abbreviates: cyclisation step, bicyclic, sequence written open.

One purity is given for all peptides; the source may state it once. A value given as a limit tells only on which side of the number the result lay.

Consider “6Ahx(2)-Abu(1)-N-T-W-Q-C(1)-AEF-2Nal-THP-E(2)-N-3Pya-Sar-CONH2”, for which, under “cyclisation step”, the cyclisation yield is recorded as 5%.
As to “7Ahp(2)-Pen(3)-N-T-7MeW-K(Ac)-Pen(3)-AEF-2Nal-THP-E(2)-N-3Pya-Sar-CONH2”, the cyclisation yield under setting [1] was 13%.
Take “Ac-[Pen]*-E**-T-[W(7-Me)]-[Lys(Ac)]-[Pen]*-Phe[4-(2-aminoethoxy)]**-[2-Nal]-[THP]-E-N-[3-Pal]-Sarc-NH2”: the “final HPLC purity” value (whole synthesis, Gemini C18, scale of the general procedure 0.1 mmol, acetate) was more than 95%.
Take “McCO-Glu-Pen-N-T-7MeW-K(Ac)-Pen-AEF-2Nal-THP—K(Ac)—N-3Pva-Sar-CONH2”: the cyclisation yield under setting [1] came to 10%.
With “McCO-k(2)-Pen(3)-O-T-W-Q-Pen(3)-AEF-2Nal-THP-E(2)-N-bAla-CONH2”, for the setting “cyclisation step”, the cyclisation yield was 49%.
“PEG2(2)-Pen(3)-N-T-7MeW-K(Ac)-Pen(3)-AEF-2Nal-THP-hE(2)-N-3Pya-Sar-CONH2”: the cyclisation yield (cyclisation step) is reported as 14%.
Turning to “ac-Pen(1:3)-Dap(2:3)-T-Trp 7Me-Lvs Ac-Pen(1:3)-Phe 4 2ae(3:3)-Nal-THP-Lys Ac—N—H-Sar-am-PEG4DA(x,2:1,3:2)”, the “final HPLC purity” value (cyclisation step, Gemini C18, TFA salt, bicyclic) is more than 95%. Further, the cyclisation yield (cyclisation step, for the step of 2nd cyclisation, bicyclic) was found to be 50%. For the same substance, the isolated yield (whole synthesis, bicyclic) stood at 15%.
Regarding “ac-Pen(1:3)-E(2:3)-T-Trp 7Me-Lys Ac-Pen(1:3)-Phe 4 2ae(2:3)-Nal-THP-Lys Ac—N—H-Sar-am”, the “final HPLC purity” value (cyclisation step, Gemini C18, TFA salt, bicyclic, sequence written open) was more than 95%. Besides, the cyclisation yield (cyclisation step, for the step of lactam bond formation, bicyclic, sequence written open) is reported as 50%. Moreover, the isolated yield (whole synthesis, bicyclic, sequence written open) is 15%.
